The list shows a part of the results, in another mix than the full data. For part of these data: At the low end of the ranking the order means little. This is one part of the list. For part of these data: Construct or isoform of the protein are uncertain.

Protein sequences, listed by entry. Tags and fused reporters are not part of them. Lines headed by an entry give the natural chain unless they say otherwise; changes in a name come on top.
UniProt P32519: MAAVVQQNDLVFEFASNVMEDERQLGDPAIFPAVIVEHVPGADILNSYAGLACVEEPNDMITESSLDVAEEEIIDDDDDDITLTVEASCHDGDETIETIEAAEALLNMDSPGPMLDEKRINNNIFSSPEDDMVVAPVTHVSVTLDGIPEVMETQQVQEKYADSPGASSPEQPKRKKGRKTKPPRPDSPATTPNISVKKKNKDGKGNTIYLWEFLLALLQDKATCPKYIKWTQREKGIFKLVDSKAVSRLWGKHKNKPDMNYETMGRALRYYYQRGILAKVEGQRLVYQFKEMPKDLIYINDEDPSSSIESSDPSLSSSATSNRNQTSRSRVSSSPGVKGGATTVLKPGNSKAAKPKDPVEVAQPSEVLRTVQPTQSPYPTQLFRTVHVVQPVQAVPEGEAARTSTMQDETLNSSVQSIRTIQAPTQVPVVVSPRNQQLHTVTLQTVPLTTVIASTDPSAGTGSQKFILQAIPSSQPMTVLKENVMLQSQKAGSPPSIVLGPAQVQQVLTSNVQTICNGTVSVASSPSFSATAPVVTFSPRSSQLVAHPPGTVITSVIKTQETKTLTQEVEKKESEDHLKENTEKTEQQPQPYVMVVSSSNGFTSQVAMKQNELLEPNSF
UniProt P50549: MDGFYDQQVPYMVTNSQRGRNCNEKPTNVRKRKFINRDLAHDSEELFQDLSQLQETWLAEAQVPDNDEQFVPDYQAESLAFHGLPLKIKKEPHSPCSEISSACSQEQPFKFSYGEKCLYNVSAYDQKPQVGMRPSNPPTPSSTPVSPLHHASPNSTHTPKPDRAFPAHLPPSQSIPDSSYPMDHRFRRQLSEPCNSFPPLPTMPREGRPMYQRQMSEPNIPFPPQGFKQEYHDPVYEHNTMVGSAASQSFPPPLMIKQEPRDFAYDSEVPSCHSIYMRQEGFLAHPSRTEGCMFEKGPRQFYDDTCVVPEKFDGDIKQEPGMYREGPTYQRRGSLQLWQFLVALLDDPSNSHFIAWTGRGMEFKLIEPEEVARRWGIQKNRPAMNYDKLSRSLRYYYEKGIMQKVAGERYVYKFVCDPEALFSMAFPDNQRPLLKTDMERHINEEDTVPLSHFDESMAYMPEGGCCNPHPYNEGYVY

Common to all, as to assay: DAPPL (digital affinity profiling via proximity ligation, sequencing)
Holding throughout (details): 10 mM Tris-HCl pH 7.5, 50 mM NaCl, 1 mM DTT, 4% glycerol, room temperature, 30 min; GST-TFs on glutathione beads, 16-mer random dsDNA library, 0.1% …; high values mean tight binding; double strand, one strand shown; scale: fold enrichment (6-mer frequency, TF over GST control)

The target in one assay is T1, ERG (UniProt P11308).
T1 sequence: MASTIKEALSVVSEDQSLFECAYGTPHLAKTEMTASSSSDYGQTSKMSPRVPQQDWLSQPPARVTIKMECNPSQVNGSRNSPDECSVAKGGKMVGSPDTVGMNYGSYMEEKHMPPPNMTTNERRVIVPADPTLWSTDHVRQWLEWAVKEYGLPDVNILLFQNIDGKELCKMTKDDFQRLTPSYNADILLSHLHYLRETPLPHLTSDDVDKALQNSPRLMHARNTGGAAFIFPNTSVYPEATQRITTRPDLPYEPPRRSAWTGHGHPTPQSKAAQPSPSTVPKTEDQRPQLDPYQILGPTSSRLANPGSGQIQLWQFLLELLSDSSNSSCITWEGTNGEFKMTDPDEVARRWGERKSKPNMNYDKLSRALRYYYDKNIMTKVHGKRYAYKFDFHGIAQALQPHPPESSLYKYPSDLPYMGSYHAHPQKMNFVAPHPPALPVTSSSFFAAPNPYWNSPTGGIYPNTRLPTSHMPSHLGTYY

For the next assay, the target named is ELF1 (UniProt P32519).
In the next assay the target is T2, ELK4 (UniProt P28324-2).
T2 sequence: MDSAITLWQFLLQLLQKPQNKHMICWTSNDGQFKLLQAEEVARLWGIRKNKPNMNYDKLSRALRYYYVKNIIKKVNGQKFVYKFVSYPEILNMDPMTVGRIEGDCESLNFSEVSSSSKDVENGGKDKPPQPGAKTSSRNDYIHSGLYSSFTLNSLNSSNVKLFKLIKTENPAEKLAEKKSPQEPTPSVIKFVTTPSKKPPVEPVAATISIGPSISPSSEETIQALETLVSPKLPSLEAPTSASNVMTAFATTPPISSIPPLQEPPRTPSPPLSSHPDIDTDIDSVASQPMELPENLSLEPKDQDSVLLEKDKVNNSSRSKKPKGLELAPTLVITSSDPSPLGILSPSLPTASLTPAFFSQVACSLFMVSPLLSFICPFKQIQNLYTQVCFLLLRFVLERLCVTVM

The target of the next assay is T3, ETV4 (UniProt P43268).
T3 sequence: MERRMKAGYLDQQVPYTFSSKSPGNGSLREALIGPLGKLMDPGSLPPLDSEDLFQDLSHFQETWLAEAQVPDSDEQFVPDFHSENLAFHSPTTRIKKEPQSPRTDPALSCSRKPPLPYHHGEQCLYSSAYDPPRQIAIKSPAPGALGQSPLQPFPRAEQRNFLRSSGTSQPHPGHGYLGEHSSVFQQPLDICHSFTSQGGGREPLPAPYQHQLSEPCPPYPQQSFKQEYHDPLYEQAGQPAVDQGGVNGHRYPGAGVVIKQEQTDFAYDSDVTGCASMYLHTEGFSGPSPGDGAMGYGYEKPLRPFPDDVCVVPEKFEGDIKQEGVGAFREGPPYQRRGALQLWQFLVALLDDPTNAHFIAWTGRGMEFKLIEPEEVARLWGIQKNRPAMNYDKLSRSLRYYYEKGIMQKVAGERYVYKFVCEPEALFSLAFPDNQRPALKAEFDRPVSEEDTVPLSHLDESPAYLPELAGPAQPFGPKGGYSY

In a further assay the target is ETV1 (UniProt P50549).
A further assay deals with T4, ERF (UniProt P50548).
T4 sequence: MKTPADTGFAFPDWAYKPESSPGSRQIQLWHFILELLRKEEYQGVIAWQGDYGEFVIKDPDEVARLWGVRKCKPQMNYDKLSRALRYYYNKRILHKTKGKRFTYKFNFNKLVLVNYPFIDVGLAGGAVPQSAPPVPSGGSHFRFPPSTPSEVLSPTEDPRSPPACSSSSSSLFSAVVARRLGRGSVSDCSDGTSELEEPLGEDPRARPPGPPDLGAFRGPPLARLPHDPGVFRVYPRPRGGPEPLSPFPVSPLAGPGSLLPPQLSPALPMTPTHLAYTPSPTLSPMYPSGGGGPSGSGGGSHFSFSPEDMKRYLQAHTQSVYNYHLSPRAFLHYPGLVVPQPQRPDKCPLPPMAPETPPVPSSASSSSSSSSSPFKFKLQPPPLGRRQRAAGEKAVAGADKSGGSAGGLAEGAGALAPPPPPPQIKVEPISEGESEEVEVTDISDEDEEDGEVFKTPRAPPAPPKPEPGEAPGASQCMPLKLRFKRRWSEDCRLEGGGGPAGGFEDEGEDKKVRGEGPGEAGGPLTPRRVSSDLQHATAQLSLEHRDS

Take AACCAG: the binding signal in the assay with ERG amounted to 0.835; in the assay with ELF1, 0.882; with ELK4 it was 0.897; with ETV4, 0.811; with ETV1, 0.831; in the assay with ERF it was 0.827.

Regarding GTCGTA, the binding signal worked out at 0.629 in the assay with ERG; 0.589 with ELF1; 0.613 with ELK4; 0.563 with ETV4; 0.604 with ETV1; 0.613 with ERF.

With CGGACA, the binding signal in the assay with ERG amounted to 0.832; in the assay with ELF1, 0.803; with ELK4, 0.666; with ETV4, 0.805; in the assay with ETV1 it was 0.826; with ERF, 0.758.

In the case of ACCAGC, the binding signal with ERG was 0.891; with ELF1 it was 0.923; with ELK4, 0.886; with ETV4 it was 0.884; with ETV1, 0.814; with ERF, 0.866.

In the case of AGCGGG, the binding signal with ERG stood at 0.467; with ELF1, 0.461; with ELK4 it was 0.538; with ETV4 it was 0.453; with ETV1, 0.455; with ERF, 0.464.

On to ACGGAC, for which the binding signal with ERG came out at 0.805; in the assay with ELF1, 0.853; in the assay with ELK4 it was 0.801; with ETV4 it was 0.8; in the assay with ETV1, 0.88; in the assay with ERF, 0.814.

In the case of GCGTAA, the binding signal with ERG came out at 0.895; with ELF1, 0.935; in the assay with ELK4, 0.944; with ETV4 it was 0.841; with ETV1 it was 0.863; with ERF, 0.878.

For the sequence TAGCCA, the binding signal with ERG came to 0.799; with ELF1 it was 0.885; in the assay with ELK4 it was 0.833; in the assay with ETV4, 0.848; with ETV1 it was 0.892; in the assay with ERF, 0.921.

Turning to CGAGGG, the binding signal with ERG stood at 0.719; with ELF1 it was 0.669; with ELK4, 0.671; with ETV4 it was 0.702; in the assay with ETV1 it was 0.681; in the assay with ERF, 0.755.

For GTAGGG, the binding signal with ERG turned out to be 0.665; in the assay with ELF1, 0.681; in the assay with ELK4, 0.734; with ETV4, 0.671; with ETV1, 0.645; with ERF, 0.638.

Consider AGGAGC, for which the binding signal with ERG was 0.438; in the assay with ELF1 it was 0.407; in the assay with ELK4 it was 0.35; in the assay with ETV4 it was 0.38; in the assay with ETV1, 0.372; in the assay with ERF, 0.429.

For AGAGGA, the binding signal in the assay with ERG turned out to be 0.685; with ELF1, 0.652; with ELK4, 0.59; in the assay with ETV4, 0.656; in the assay with ETV1, 0.653; with ERF, 0.645.

In the case of GAGTGG, the binding signal with ERG amounted to 0.618; with ELF1, 0.61; with ELK4, 0.696; with ETV4, 0.598; in the assay with ETV1, 0.597; with ERF, 0.662.

Consider TCGGCC, for which the binding signal was found to be 0.741 with ERG; 0.715 in the assay with ELF1; 0.774 with ELK4; 0.794 in the assay with ETV4; 0.693 in the assay with ETV1; 0.768 with ERF.

For the sequence GGTTGC, the binding signal in the assay with ERG stood at 0.927; with ELF1, 0.902; with ELK4, 0.989; with ETV4 it was 0.912; in the assay with ETV1, 0.941; with ERF, 0.914.

Consider AAGAGT, for which the binding signal with ERG is 0.837; with ELF1 it was 0.896; with ELK4, 0.899; with ETV4, 0.859; with ETV1, 0.888; in the assay with ERF it was 0.936.

Regarding GAGACT, the binding signal with ERG came to 0.389; in the assay with ELF1, 0.395; in the assay with ELK4, 0.425; with ETV4 it was 0.404; with ETV1, 0.39; with ERF, 0.408.

With GGCCCA, the binding signal came to 0.875 in the assay with ERG; 0.835 in the assay with ELF1; 0.877 with ELK4; 0.828 in the assay with ETV4; 0.82 with ETV1; 0.767 with ERF.

For CGCATA, the binding signal with ERG was 0.707; with ELF1, 0.709; with ELK4, 0.733; with ETV4, 0.735; with ETV1, 0.721; in the assay with ERF it was 0.712.

AGGCAG: the binding signal was 0.611 in the assay with ERG; 0.541 with ELF1; 0.512 with ELK4; 0.538 in the assay with ETV4; 0.562 with ETV1; 0.579 with ERF.

With CCAGTC, the binding signal with ERG is 0.293; with ELF1, 0.275; with ELK4, 0.285; with ETV4 it was 0.254; with ETV1 it was 0.277; with ERF, 0.292.

For the sequence GAGCCT, the binding signal turned out to be 0.799 with ERG; 0.868 in the assay with ELF1; 0.901 with ELK4; 0.861 with ETV4; 0.91 with ETV1; 0.866 with ERF.

Regarding CGAGAG, the binding signal with ERG is 0.399; with ELF1 it was 0.403; with ELK4 it was 0.392; in the assay with ETV4 it was 0.384; with ETV1, 0.342; with ERF, 0.383.

With GTAGAC, the binding signal amounted to 0.737 in the assay with ERG; 0.766 in the assay with ELF1; 0.765 with ELK4; 0.801 with ETV4; 0.794 with ETV1; 0.813 with ERF.

As to ACGTAG, the binding signal in the assay with ERG was determined as 0.783; in the assay with ELF1, 0.829; with ELK4, 0.777; in the assay with ETV4 it was 0.805; with ETV1 it was 0.751; with ERF it was 0.788.

Consider GAACGT, for which the binding signal with ERG worked out at 0.422; in the assay with ELF1, 0.406; with ELK4 it was 0.389; with ETV4, 0.386; in the assay with ETV1, 0.424; with ERF, 0.406.

As for GAGGAT, the binding signal was found to be 0.556 with ERG; 0.562 with ELF1; 0.532 in the assay with ELK4; 0.569 with ETV4; 0.597 with ETV1; 0.598 with ERF.

In the case of GTCAGT, the binding signal with ERG stood at 0.595; with ELF1, 0.656; with ELK4, 0.644; with ETV4, 0.572; with ETV1, 0.654; with ERF it was 0.587.

For ACGCAG, the binding signal with ERG turned out to be 0.777; with ELF1, 0.795; in the assay with ELK4, 0.81; with ETV4, 0.83; in the assay with ETV1, 0.765; with ERF, 0.819.

Take GCGGTA: the binding signal with ERG is 0.755; with ELF1, 0.714; with ELK4, 0.699; in the assay with ETV4, 0.732; in the assay with ETV1, 0.754; with ERF, 0.698.

Source of the values: paper PMC7862700.
